Substitutions are numbered along the chain they refer to. These are yes or no findings as the source states them, for the method shown. A result given as binding can be weak or reduced; the word gives no strength.
B1: A4-D9 (bispecific antibody)
chain: VQLQESGGGLVHSGGSLRLSCAASGSMFSLNTMGWYRQAPGKQRELVATITRGGGTSYADSVKGRFTISRDNAKNTVYLQMNSLRPEDTAVYYCHVDELRQSSWTTSNLWGQGTQVTVSSGGGGSGGGGSGGGGSVQLQESGGGLVQPGGSLRLSCAASGSRFSLNTMGWYRQAPGKQRELVATVTRGGSTNYADFVKGRFTISRDNAKNTVYLQMNSLRPEDTAVYYCHVDELRESGWTTSNLWGQGTQVTVSSGGGGSGGGGSGGGGSVQLQESGGGLVQPGGSLRLSCAASGSRFSLNTMGWYRQAPGKQRELVATVTRGGSTNYADFVKGRFTISRDNAKNTVYLQMNSLRPEDTAVYYCHVDELRESGWTTSNLWGQGTQVTVSSGGGGSGGGGSGGGGSVQLQESGGGLVQTGGSLRLSCAASGRAFSLNTMGWYRQAPGKWRELVATVTRGGSTNYAGSVKGRFTISRDNAKNTVYLQMNNLRPEDTAVYYCHVDEVRESSWTTSNLWGQGTQVTVSS
B2: A4-D8 (bispecific antibody)
chain: VQLQESGGGLVQPGGSLRLSCAASGSRFSLNTMGWYRQAPGKQRELVATVTRGGSTNYADSVKGRFTISRDNAKNTVYLQMNSLRPEDTAVYYCHVDELRESGWTTSNLWGQGTQVTVSSGGGGSGGGGSGGGGSVQLQESGGGLVQPGGSLRLSCAASGSRFSLNTMGWYRQAPGKQRELVATVTRGGSTNYADFVKGRFTISRDNAKNTVYLQMNSLRPEDTAVYYCHVDELRESGWTTSNLWGQGTQVTVSSGGGGSGGGGSGGGGSVQLQESGGGLVHSGGSLRLSCAASGSMFSLNTMGWYRQAPGKQRELVATITRGGGTSYADSVKGRFTISRDNAKNTVYLQMNSLRPEDTAVYYCHVDELRQSSWTTSNLWGQGTQVTVSSGGGGSGGGGSGGGGSVQLQESGGGLVQPGGSLRLSCAASGSRFSLNTMGWYRQAPGKQRELVATVTRGGSTNYADFVKGRFTISRDNAKNTVYLQMNSLRPEDTAVYYCHVDELRESGWTTSNLWGQGTQVTVSS
B3: A4-T1 (VHH)
VHH: VQLQESGGGLVQPGGSLRLSCAASGSIFSINLMGWYRQAPGKQRELVATITRGGNTNYAGSVKGRFTISRDNAKNTVYLQMNSLRPEDTAVYYCHVDEVRQSSWTTSNLWGQGTQVTVSS
B4: A4-T2 (VHH)
VHH: B3 VHH
B5: A4-L1 (VHH)
VHH: B3 VHH
B6: A4-D13 (protein)
chain: VQLQESGGGLVQPGGSLRLSCAASGSIFIINTMGWYRRAPGKQRELVAAVTRGGSTNYADSVKGRFTISRDNAKNTVYLQMNSLRPEDTAVYYCHVDEVRQSSWTTSNLWGQGTQVTVSSGGGGSGGGGSGGGGSVQLQESGGGLVQPGGSLRLSCAASGSIFSINTMGWYRQAPGKQRELVAAVTRGGSTNYADSVKGRFTISRDNAKNTVYLQMNSLRPEDTAVYYCHVDEVRQSSWTTSNLWGQGTQVTVSSGGGGSGGGGSGGGGSVQLQESGGGLAQAGGSLRLSCAASGRGFSINTMGWYRQAPGKQRELVAAVTRGGTTNYADSVKGRFTISRDNAKNTVYLQMNSLRPEDTAVYYCHVDEVRQSSWTTSNLWGQGTQVTVSSGGGGSGGGGSGGGGSVQLQESGGGLVQPGGSLRLSCAASGRAFSINTMGWYRQAPGKQRELVATVTRDGSTNYAGSVKGRFTISRDNAKNTVYLQMNSLRPEDTAVYYCHVDEVRQSSWTTSNLWGQGTQVTVSS
B7: A4-D12 (protein)
chain: VQLQESGGGLVQPGGSLRLSCAASGSIFSINTMGWYRQAPGKQRELVAAVTRGGSTNYADSVKGRFTISRDNAKNTVYLQMNSLRPEDTAVYYCHVDEVRQSSWTTSNLWGQGTQVTVSSGGGGSGGGGSGGGGSVQLQESGGGLAQAGGSLRLSCAASGRGFSINTMGWYRQAPGKQRELVAAVTRGGTTNYADSVKGRFTISRDNAKNTVYLQMNSLRPEDTAVYYCHVDEVRQSSWTTSNLWGQGTQVTVSSGGGGSGGGGSGGGGSVQLQESGGGLVQPGGSLRLSCAASGRAFSINTMGWYRQAPGKQRELVATVTRDGSTNYAGSVKGRFTISRDNAKNTVYLQMNSLRPEDTAVYYCHVDEVRQSSWTTSNLWGQGTQVTVSSGGGGSGGGGSGGGGSVQLQESGGGLVQPGGSLRLSCAASGSIFIINTMGWYRRAPGKQRELVAAVTRGGSTNYADSVKGRFTISRDNAKNTVYLQMNSLRPEDTAVYYCHVDEVRQSSWTTSNLWGQGTQVTVSS
B8: A4-B1 (VHH)
chain: VQLQESGGGLVQPGGSLRLSCAASGSIFSINLMGWYRQAPGKQRELVATITRGGNTNYAGSVKGRFTISRDNAKNTVYLQMNSLRPEDTAVYYCHVDEVRQSSWTTSNLWGQGTQVTVSSGGGGSGGGGSGGGGSVQLQESGGGLVQPGGSLRLSCAASGSIFSINLMGWYRQAPGKQRELVATITRGGNTNYAGSVKGRFTISRDNAKNTVYLQMNSLRPEDTAVYYCHVDEVRQSSWTTSNLWGQGTQVTVSS
B9: A4-D10 (protein)
chain: VQLQESGGGLAQAGGSLRLSCAASGRGFSINTMGWYRQAPGKQRELVAAVTRGGTTNYADSVKGRFTISRDNAKNTVYLQMNSLRPEDTAVYYCHVDEVRQSSWTTSNLWGQGTQVTVSSGGGGSGGGGSGGGGSVQLQESGGGLVQPGGSLRLSCAASGRAFSINTMGWYRQAPGKQRELVATVTRDGSTNYAGSVKGRFTISRDNAKNTVYLQMNSLRPEDTAVYYCHVDEVRQSSWTTSNLWGQGTQVTVSSGGGGSGGGGSGGGGSVQLQESGGGLVQPGGSLRLSCAASGSIFIINTMGWYRRAPGKQRELVAAVTRGGSTNYADSVKGRFTISRDNAKNTVYLQMNSLRPEDTAVYYCHVDEVRQSSWTTSNLWGQGTQVTVSSGGGGSGGGGSGGGGSVQLQESGGGLVQPGGSLRLSCAASGSIFSINTMGWYRQAPGKQRELVAAVTRGGSTNYADSVKGRFTISRDNAKNTVYLQMNSLRPEDTAVYYCHVDEVRQSSWTTSNLWGQGTQVTVSS
B10: A4-D11 (protein)
chain: B9 chain with A11V, A13P, R161S, A162I, T184A, D188G, G195D, I432S, S434V
B11: A4-D6 (bispecific antibody)
chain: VQLQESGGGLVQTGGSLRLSCAASGRAFSLNTMGWYRQAPGKWRELVATVTRGGSTNYAGSVKGRFTISRDNAKNTVYLQMNNLRPEDTAVYYCHVDEVRESSWTTSNLWGQGTQVTVSSGGGGSGGGGSGGGGSVQLQESGGGLVQTGGSLRLSCAASGRAFSLNTMGWYRQAPGKWRELVATVTRGGSTNYAGSVKGRFTISRDNAKNTVYLQMNNLRPEDTAVYYCHVDEVRESSWTTSNLWGQGTQVTVSSGGGGSGGGGSGGGGSVQLQESGGGLVQPGGSLRLSCAASGSIFTINSMGWYRQAPGKWRELVATVTRGGNTNYANSVKGRFTISRDNAKNTVYLQMNTLRPEDTAVYYCHLDEVRDSSWTTSNLWGQGTQVTVSSGGGGSGGGGSGGGGSVQLQESGGGLVQPGGSLRLSCAASGSIFSINSMGWYRQAPGKWRELVATVTRGGSTNYANSVKGRFTISRDNAKNTVYLQMNTLRPEDTAVYYCHLDEVRDSSWTTSNLWGQGTQVTVSS
B12: A4-B2 (bispecific antibody)
chain: VQLQESGGGLVQAGGSLRLSCAASGSRFSINTMGWYRQAPGKQREFVATVTRGGNTNYAESVKGRFTISRDNAKNTVYLQMNSLRPEDTAVYYCHVDEVRDSSWTTSNIWGQGTQVTVSSGGGGSGGGGSGGGGSVQLQESGGGLVQAGGSLRLSCAASGSTFSINTMGWYRQAPGKQRELVATITRGGNTNYADSVKGRFTISRDNAKNTVYLQMNSLRPEDTAVYYCHVDEVRQSSWTTSNLWGQGTQVTVSS
B13: A4-B3 (VHH)
chain: VQLVESGGGLVQPGGSLRLSCAASGRSFSINTMGWFRQAPGKGLEAVAIVTRGGSTYYADSVKGRFTISRDNSKNTLYLQMNSLRAEDTAVYYCHIDEVRQSSWTTSNIWGQGTLVTVSSGGGGSGGGGSGGGGSVQLVESGGGLVQPGGSLRLSCAASGRSFSINTMGWFRQAPGKGLEAVAIVTRGGSTYYADSVKGRFTISRDNSKNTLYLQMNSLRAEDTAVYYCHIDEVRQSSWTTSNIWGQGTLVTVSS
B14: A4-D7 (bispecific antibody)
chain: VQLQESGGGLVQTGGSLRLSCAASGRAFSLNTMGWYRQAPGKWRELVATVTRGGSTNYAGSVKGRFTISRDNAKNTVYLQMNNLRPEDTAVYYCHVDEVRESSWTTSNLWGQGTQVTVSSGGGGSGGGGSGGGGSVQLQESGGGLVQPGGSLRLSCAASGSIFTINSMGWYRQAPGKWRELVATVTRGGNTNYANSVKGRFTISRDNAKNTVYLQMNTLRPEDTAVYYCHLDEVRDSSWTTSNLWGQGTQVTVSSGGGGSGGGGSGGGGSVQLQESGGGLVQPGGSLRLSCAASGSIFSINSMGWYRQAPGKWRELVATVTRGGSTNYANSVKGRFTISRDNAKNTVYLQMNTLRPEDTAVYYCHLDEVRDSSWTTSNLWGQGTQVTVSSGGGGSGGGGSGGGGSVQLQESGGGLVQTGGSLRLSCAASGRAFSLNTMGWYRQAPGKWRELVATVTRGGSTNYAGSVKGRFTISRDNAKNTVYLQMNNLRPEDTAVYYCHVDEVRESSWTTSNLWGQGTQVTVSS
B15: A4-M1 (VHH)
VHH: QVQLQESGGGLVQPGGSLRLSCAASGSIFSINLMGWYRQAPGKQRELVATITRGGNTNYAGSVKGRFTISRDNAKNTVYLQMNSLRPEDTAVYYCHVDEVRQSSWTTSNLWGQGTQVTVSS
B16: A4-M2 (VHH)
VHH: B15 VHH

Target: AAV9 (adeno-associated virus serotype 9 (AAV9))
Experiment: SPR, AAV amine-coupled to CM5 chip

Binder	binding
B1	binds
B2	binds
B3	binds
B4	binds
B5	binds
B6	binds
B7	binds
B8	binds
B9	binds
B10	binds
B11	binds
B12	binds
B13	binds
B14	binds
B15	binds
B16	binds

Target: AAV5 (adeno-associated virus serotype 5 (AAV5))
Experiment: SPR, AAV amine-coupled to CM5 chip

Binder	binding
B1	binds
B2	binds
B3	binds
B4	binds
B5	binds
B6	binds
B7	binds
B8	binds
B9	binds
B10	binds
B11	binds
B12	binds
B13	binds
B14	binds
B15	binds
B16	binds

Target: AAV8 (adeno-associated virus serotype 8 (AAV8))
Experiment: SPR, AAV amine-coupled to CM5 chip

Binder	binding
B1	binds
B2	binds
B3	binds
B4	binds
B5	binds
B6	binds
B7	binds
B8	binds
B9	binds
B10	binds
B11	binds
B12	binds
B13	binds
B14	binds
B15	binds
B16	binds

— patent publication US20260193326A1
